Results deposited as PubChem BioAssay AID1259298 (Sanger Institute, 2017)
Here is an unselected part of 794 reagents. 20 of all reagents (2.5%) were called active. 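Calls rest only on the knock-down-alone score; drug synergy scores played no part in them.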 Unmarked entries are inactive. Further read-outs or replicates are left out here. Reagent sequences are not shown. The record does not give: the amount of reagent, the time to read-out.

- Aim: 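Kinase knock-downs that cut colorectal cancer cell viability or act with targeted drugs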 (primary screen)
- System: HT55 human colorectal cancer cell line
- Knock-down reagent: siRNA pool against human genes
- Challenge: anchor drug BYL719 1 µM, cetuximab 5 µg/ml or trametinib 10 nM, or DMSO vehicle alone
- Measured: 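Replicate-averaged viability versus wells of non-targeting pool; knock-down-only robust z-score; per-drug synergy score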
- Scale: robust z-score, knock-down alone: higher = more cells remaining; low means essential gene
- Call rule: 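a gene counts as essential if its knock-down-alone robust z-score falls under -3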
- Meaning of the calls: active = essential (knock-down alone); inactive = no change alone

Silencing of CSNK2B came out at: robust z-score, knock-down alone 0.58.
With knock-down of PXK, the screen gave robust z-score, knock-down alone -0.311.
DAPK1 scored robust z-score, knock-down alone 0.438.
Depletion of STK38 gave: robust z-score, knock-down alone 0.58.
BMP2K showed robust z-score, knock-down alone -1.9.
ADGRL2 gave robust z-score, knock-down alone -0.596.
PDGFRB showed robust z-score, knock-down alone -1.88.
Depletion of RBM10 resulted in: robust z-score, knock-down alone -0.766.
Silencing of CSNK1D came out at: robust z-score, knock-down alone 0.58.
GRK3 scored robust z-score, knock-down alone 0.58.
Against PBK, the values are robust z-score, knock-down alone 0.58.
PNCK scored robust z-score, knock-down alone 0.416.
For LRRK1 the deposit lists robust z-score, knock-down alone 0.58.
For PHKG2 the deposit lists robust z-score, knock-down alone -0.335.
With knock-down of FOXP1, the screen gave robust z-score, knock-down alone -1.26.
Against IRAK1 the deposit lists robust z-score, knock-down alone -0.0498.
With knock-down of PIM2, the screen gave robust z-score, knock-down alone -0.192.
For EPHB2, the entry reads robust z-score, knock-down alone 0.58.
CAMK4 showed robust z-score, knock-down alone 0.58.
With knock-down of GSK3B the results were robust z-score, knock-down alone 0.58.
For NEK3, the values are robust z-score, knock-down alone -0.0953.
For BRDT, the values are robust z-score, knock-down alone 0.58.
Against FCSK, the entry reads robust z-score, knock-down alone -0.245.
Knock-down of MARK1 resulted in: robust z-score, knock-down alone 0.58.
ELP1 scored robust z-score, knock-down alone 0.58.
With knock-down of AK7, the record shows robust z-score, knock-down alone 0.58.
Against NME5, the values are robust z-score, knock-down alone -1.19.
Knock-down of MECOM resulted in: robust z-score, knock-down alone 0.58.
LTK gave robust z-score, knock-down alone 0.138.
Knock-down of ZAP70 resulted in: robust z-score, knock-down alone -0.311.
Silencing of CAMK2G gave: robust z-score, knock-down alone 0.58.
CSF1R gave robust z-score, knock-down alone 0.58.
MGA showed robust z-score, knock-down alone -1.56.
BCKDK showed robust z-score, knock-down alone 0.58.
With knock-down of GK2, the record shows robust z-score, knock-down alone 0.58.
For ADCK1 the deposit lists robust z-score, knock-down alone 0.58.

4 entries from above, reformatted.
gene symbol	robust z-score, knock-down alone
NME5	-1.19
MECOM	0.58
LTK	0.138
ZAP70	-0.311
